The list shows a part of the results.

Amino acid sequences for entries named in this document (tags omitted).
UniProt Q0JBA9, entry or part of it: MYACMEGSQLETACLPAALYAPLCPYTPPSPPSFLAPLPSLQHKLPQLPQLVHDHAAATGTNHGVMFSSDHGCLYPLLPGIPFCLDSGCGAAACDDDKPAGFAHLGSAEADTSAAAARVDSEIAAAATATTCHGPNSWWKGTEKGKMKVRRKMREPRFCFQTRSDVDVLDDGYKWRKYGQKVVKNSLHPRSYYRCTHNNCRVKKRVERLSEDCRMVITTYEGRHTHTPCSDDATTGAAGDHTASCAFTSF

Drawing on article PMC7819943, “Rice protein-binding microarrays: a tool to detect cis-acting elements near promoter regions in rice”, this text covers binding signal for 42 sequences.

The experiment has as its target OsWRKY34 (Oryza sativa, UniProt Q0JBA9 1-250). As to the kind of experiment: protein-binding microarray (RPBM); PBS, 2% BSA, 51.3 ng/ul salmon testes DNA, 50 uM zinc acetate, 200 nM TF, 25 C, 1 h; high values mean tight binding. Particulars: protein: recombinant; tags: N-terminal polyhistidine and DsRed monomer fusion (pET32a); label: CyDye5-dUTP incorporated in the synthesized complementary strand; 3' TTTTT single-stranded linker to array surface; dsDNA, one strand shown. The method in brief: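 Binding signal is reported as fluorescence intensity per feature (arbitrary units) from an Axon 4000B scanner. Incubation used 200 nM of each Ni–NTA-purified, N-terminally polyhistidine- and DsRed-fused transcription factor from E. coli BL21-CodonPlus on a double-stranded custom Agilent array for 1 h at 25 °C, with 50 µM zinc acetate in the buffer, followed by washing.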
On to “CACTGCCCATTCGCCACGTCCCCTAACGCTCCAGGTTTATCGGAGTCACCTAGTGCAG”, for which the binding signal is 8920 fluorescence intensity (a.u.). With “TCATTTCGTTCTAGCTCCGCCTCTGCACATGGCGCAACATCGGAGTCACCTAGTGCAG” the figure was 9000 fluorescence intensity (a.u.); with “CACCCCAATGCAAAGCCCATTCTGATACTCCTTTTCACCGCGGAGTCACCTAGTGCAG”, 9380 fluorescence intensity (a.u.); with “TAGGTGATGATTTCGTGTTTTGGTCCTGTATTTATGTTGGCGGAGTCACCTAGTGCAG”, 8120 fluorescence intensity (a.u.). As for “CTGCTTTCCCGTTATTTTCTTATTTAGATATAGATTGATTCGGAGTCACCTAGTGCAG”, the binding signal was 9290 fluorescence intensity (a.u.). With “GAATCAGCCTTTTCAGTCACCACTTCTTTCTCCTTTCTCTCGGAGTCACCTAGTGCAG” the figure was 9310 fluorescence intensity (a.u.).

Consider “TTGGACCTAACCACATCCTTGACCGTCGATTTGTACCCCACGGAGTCACCTAGTGCAG”, for which the binding signal was 8690 fluorescence intensity (a.u.). “CTCACCATTTTCACTCACTCACTCACACTGAACTCCTATGCGGAGTCACCTAGTGCAG”: the binding signal is 8360 fluorescence intensity (a.u.). As to “GTTCTGATAGTCTTGGAGGTGTTGTCGTTCCTTGTTGGTACGGAGTCACCTAGTGCAG”, the binding signal is 8550 fluorescence intensity (a.u.). On to “TCCAGCGATGCCCTAGCCTCCGTTCTCGTACGCACTTTGTCGGAGTCACCTAGTGCAG”, for which the binding signal is 8900 fluorescence intensity (a.u.).

With “GCCGCCACCACCACCACCACCACCGTGCCCACGCCATCGCCGGAGTCACCTAGTGCAG”, the binding signal was 12700 fluorescence intensity (a.u.).

Take “AACCTGGAGCACACACTCGCCTCCTTCCATCGCTGATGCACGGAGTCACCTAGTGCAG”: the binding signal is 8370 fluorescence intensity (a.u.).

For the sequence “TGCCGCACCTTGTGACCATTCCCGCCATAATCCTTGAACTCGGAGTCACCTAGTGCAG”, the binding signal is 9480 fluorescence intensity (a.u.).

Consider “GAGGTGGGGTGCATTTTCCCTAAATTTTTGAACAGTTTATCGGAGTCACCTAGTGCAG”, for which the binding signal is 8820 fluorescence intensity (a.u.). For the sequence “GATTTAAAGTTGTCTTTTTGTGGGTGGGAAATCATTTCCACGGAGTCACCTAGTGCAG”, the binding signal is 12700 fluorescence intensity (a.u.). With “TCCCTCCCTCTCTCTCTCTCTGTTTCTCCAGTCTCCACATCGGAGTCACCTAGTGCAG” the figure was 11200 fluorescence intensity (a.u.); with “CACCGGCGCCACCTCCACCTGCTCGCTGCGCGCCCAGCCACGGAGTCACCTAGTGCAG”, 8630 fluorescence intensity (a.u.); with “AACCATAGTTTATGTTTACTAATGTATTCCTTTCCTATTTCGGAGTCACCTAGTGCAG”, 8060 fluorescence intensity (a.u.). With “GGCCGTGTCGGCATCCTCCGCGACATCCTTGTCATTGCTCCGGAGTCACCTAGTGCAG” the figure was 8200 fluorescence intensity (a.u.); with “ATTTGCACGGGCACATGAAGATTGTTACTGTTCTCGACTTCGGAGTCACCTAGTGCAG”, 8710 fluorescence intensity (a.u.). With “AGCTAGCTAACCTTGGTCTCCCATCTCATGTTAGGTTTATCGGAGTCACCTAGTGCAG” the figure was 8540 fluorescence intensity (a.u.).

“TTCTACCTTAGTCAAACACTAAAACTATGCAGTATCTTTTCGGAGTCACCTAGTGCAG”: the binding signal was 8960 fluorescence intensity (a.u.).

As to “GTTGTTTTGCCGATATTTGCGGGTTCATTAATTTTCTTTTCGGAGTCACCTAGTGCAG”, the binding signal is 9060 fluorescence intensity (a.u.).

As to “ATGAGACTGTCATATTGTTACGCTTTATCTTACCAACATTCGGAGTCACCTAGTGCAG”, the binding signal is 9010 fluorescence intensity (a.u.). As to “CCATTTTCTCTCTCGCTCGGTTTGCTGCTCTCCTCCTCCTCGGAGTCACCTAGTGCAG”, the binding signal was 9000 fluorescence intensity (a.u.). Consider “ACCCATTGCAATGCTTCATCTCCATCACTTGCATCCTTGTCGGAGTCACCTAGTGCAG”, for which the binding signal is 9950 fluorescence intensity (a.u.). For the sequence “AGAATTTATATTACTGTGCGAATACTGTTTCCATTTCAAACGGAGTCACCTAGTGCAG”, the binding signal is 8940 fluorescence intensity (a.u.).

On to “ACAACACGCCGCCTCGCCTGCCCATCCCGTCCAACCCACGCGGAGTCACCTAGTGCAG”, for which the binding signal is 9200 fluorescence intensity (a.u.). With “GTCCACAAATTTGGTAGCAACAGAGATCATTTATATATTGCGGAGTCACCTAGTGCAG” the figure was 8150 fluorescence intensity (a.u.).

For “CTCTCCTCCGCCGCCTCCTCCTCACTAGTGACGACACCACCGGAGTCACCTAGTGCAG”, the binding signal was 8170 fluorescence intensity (a.u.). As for “GCTCACCACGACTAATCCTAGTGCTATAAGCAGCGACCAACGGAGTCACCTAGTGCAG”, the binding signal is 8380 fluorescence intensity (a.u.). For the sequence “CCTTAGTCTGGTTGGAGGGAGATTTTCGGCCATGCAAAACCGGAGTCACCTAGTGCAG”, the binding signal is 8110 fluorescence intensity (a.u.). As to “CAGGTGGGGACCTGTCGGGGAGAGAGGGAGGGGAAAACGGCGGAGTCACCTAGTGCAG”, the binding signal was 9470 fluorescence intensity (a.u.).

“CGGACACGGCCTCGTCAGGGTTCTTGCTAGTTCTTGTAGTCGGAGTCACCTAGTGCAG”: the binding signal is 10000 fluorescence intensity (a.u.). Under “ACCTGAAGTCTCTGCCTTGACATTTACAGGTGCGGTTGAACGGAGTCACCTAGTGCAG” stands 8600 fluorescence intensity (a.u.); under “GCAAATGGGATCTGCGAGCCTTTCTTTCTTTCCTTCCCTACGGAGTCACCTAGTGCAG”, 8730 fluorescence intensity (a.u.); under “TTATTTAGTGTTGCACATAGTGTTATTTATATGTTTCATTCGGAGTCACCTAGTGCAG”, 8060 fluorescence intensity (a.u.).

For “GCCTGCTTACTTTCTGCCACCTTTATCTTGCCTAAACAGGCGGAGTCACCTAGTGCAG”, the binding signal was 8980 fluorescence intensity (a.u.). With “ATTTTACCAGTCTTGGAGATTTTAATCTTGTATAGTTTTCCGGAGTCACCTAGTGCAG” the figure was 9110 fluorescence intensity (a.u.); with “GCCATACGATCGGAACGAATTCTATTGGCCGTTTCACTTTCGGAGTCACCTAGTGCAG”, 8070 fluorescence intensity (a.u.). As to “CTCACCAAGTCATGATCTCTGCGTCGCTTTACAACAAACTCGGAGTCACCTAGTGCAG”, the binding signal is 9220 fluorescence intensity (a.u.).

With “TGCATGTCTTATGCATACTCACTACACATATACACATCATCGGAGTCACCTAGTGCAG”, the binding signal was 8780 fluorescence intensity (a.u.).
